# Data taken from patent US20110028398A1, “METHODS FOR TREATING AND LIMITING FIBROTIC DISORDERS AND KELOIDS” (The Arizona Board of Regents, a body corporate acting for …, priority 2006, published 2011).
# At least one compound was matched to its structure with a doubt left.
# Tested on: CTGF expression in human keloid fibroblasts
# Assay: TGF-β1-induced CTGF expression, Western blot densitometry related to GAPDH
# Type: cell-based
# Conditions: non-stimulated fibroblasts; FSK 10 μM
# Description: Fibroblast culture: Human keloid fibroblasts were grown in 10 cm^2 dishes to 70% confluence in DMEM with 10% FBS and additional penicillin and streptomycin (1%), at 37° C. and 10% CO2. Cells were serum starved in DMEM containing 0.5% FBS for 48 h before the experiment. At the start of the assay, fresh media was added to the dishes, and cells were either untreated (control) or treated with TGF-β1 (doses ranging from 0.6 to 5 ng/mL), P20 phosphopeptide (doses ranging from 50-200 μM), forskolin (FSK, 10 μM) or SNAP (500 μM) for 24 h. To verify the influence of serum starvation, we also had cells in 10% FBS containing medium (control high serum).
# Western blot analysis: At the end of the experiment, cells were rinsed with PBS, and homogenized using UDC buffer. […] Protein-antibody complexes were visualized using the Odyssey direct infrared fluorescence imaging system (Li-Cor, Lincoln, Nebr.). […]
# P20 treatment and CTGF expression: Human keloid fibroblasts were serum-starved in DMEM medium containing 0.5% FBS for 48 hours, stimulated with TGF-beta1 doses ranging from 1.2 to 5 ng/mL and concomitantly treated with the P20 phosphopeptide (50, 100 or 200 μM) for 24 hours. Western blot bands were quantified by densitometry, and CTGF expression was related to GAPDH expression to correct for loading differences. […]
smiles,measurement,value
"C=C[C@@]1(C)CC(=O)[C@]2(O)[C@@]3(C)[C@@H](O)CCC(C)(C)[C@@H]3[C@H](O)[C@H](OC(C)=O)[C@@]2(C)O1 [FSK, forskolin]",CTGF expression compared to untreated cells,No difference
